According to US6337074B1, “Anti-herpesviral agent” (priority 1996, dated 2002):
Part of at least one peptide drawing is inferred or uncertain, most often the ends.

The chains behind the UniProt entries cited, without tags or fusion partners. Where a name states a change or a piece, a line headed by the entry shows the natural chain unless it says otherwise.
UniProt P04293: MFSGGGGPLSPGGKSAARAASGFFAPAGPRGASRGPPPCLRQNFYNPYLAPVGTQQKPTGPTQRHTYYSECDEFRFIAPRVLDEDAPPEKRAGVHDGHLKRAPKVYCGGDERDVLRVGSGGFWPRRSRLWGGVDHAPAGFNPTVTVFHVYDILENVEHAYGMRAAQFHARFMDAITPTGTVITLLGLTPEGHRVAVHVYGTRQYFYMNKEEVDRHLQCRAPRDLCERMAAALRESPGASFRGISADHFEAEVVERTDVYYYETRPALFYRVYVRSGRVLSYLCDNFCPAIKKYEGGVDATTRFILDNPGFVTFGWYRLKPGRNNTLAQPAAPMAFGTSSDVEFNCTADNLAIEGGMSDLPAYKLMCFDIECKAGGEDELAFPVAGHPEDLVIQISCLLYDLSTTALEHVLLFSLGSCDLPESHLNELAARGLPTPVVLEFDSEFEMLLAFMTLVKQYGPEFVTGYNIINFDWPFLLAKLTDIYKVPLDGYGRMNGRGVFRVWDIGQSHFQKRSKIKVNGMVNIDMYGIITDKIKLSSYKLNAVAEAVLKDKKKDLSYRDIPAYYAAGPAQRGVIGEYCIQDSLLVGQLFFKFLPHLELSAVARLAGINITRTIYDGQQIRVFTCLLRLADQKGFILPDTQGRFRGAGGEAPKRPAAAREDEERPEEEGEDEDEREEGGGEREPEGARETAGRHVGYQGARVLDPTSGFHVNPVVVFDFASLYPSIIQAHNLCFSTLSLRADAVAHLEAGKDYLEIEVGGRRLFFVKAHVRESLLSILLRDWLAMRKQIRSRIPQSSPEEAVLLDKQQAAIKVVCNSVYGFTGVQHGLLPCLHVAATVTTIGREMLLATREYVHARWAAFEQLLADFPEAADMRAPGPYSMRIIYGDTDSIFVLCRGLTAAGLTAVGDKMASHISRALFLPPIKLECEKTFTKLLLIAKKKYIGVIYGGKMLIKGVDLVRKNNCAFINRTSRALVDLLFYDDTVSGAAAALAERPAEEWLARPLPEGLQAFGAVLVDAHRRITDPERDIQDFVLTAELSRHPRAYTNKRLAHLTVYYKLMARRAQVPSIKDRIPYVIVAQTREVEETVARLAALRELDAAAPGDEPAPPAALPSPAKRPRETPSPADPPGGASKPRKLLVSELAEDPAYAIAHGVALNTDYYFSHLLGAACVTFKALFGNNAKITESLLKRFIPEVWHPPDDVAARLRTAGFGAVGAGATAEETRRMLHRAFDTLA

Target: T1, POL/UL8 interaction (Human herpesvirus 1, UniProt P04293)
T1 construct: made in house; host or cells: Spodoptera frugiperda (Sf) cells infected with recombinant baculoviruses AcUL30 and AcUL8
Format: binding, HSV-1
Conditions: FIG. 6; at 500 μM
From the text: POL/UL8 interaction assays. ELISA assays, similar to that described for POL/UL42 (Marsden et al., 1994) were established with purified POL and UL8 proteins. POL was extracted from Sf cells infected with recombinant baculovirus AcUL30 and purified as described by Gottlieb et al. (1990) with minor modifications (Marsden et al., 1994). UL8 protein was extracted from Sf cells infected with recombinant baculovirus AcUL8 and purified as described by Parry et al., (1993) but substituting phenyl-Sepharose by hydroxylapatite chromatography (Dodson and Lehman, 1991). Both proteins were diluted in PBS to the required concentrations. For the first assay, microtiter wells were coated overnight with 0.02 μg of purified POL and blocked with 100 μl of 2% BSA in PBS for 1 h at 37° C. […] The wells were again extensively washed and bound MAb was detected with 50 μl/well of HRP-conjugated goat anti-mouse IgG (Sigma) diluted 1:500 in PBS containing 2% FCS and chromogenic substrate ABTS. […] Microtitre wells were coated overnight with 0.02 to 0.04 μg of purified UL8 protein and bound POL was detected with a POL-specific MAB 13185 (Marsden et al., 1996) diluted 1:100. […]
Inhibition of the POL/UL8 interaction by UL8 peptides. […] The mixtures were then added to microtiter wells coated with UL8 and the amount of POL bound was determined after 1 h. […]

For `CC[C@H](C)[C@H](NC(=O)[C@@H]1CCCN1C(=O)[C@H](CCC(=O)O)NC(=O)[C@H](CCCCN)NC(=O)[C@H](CCC(=O)O)NC(=O)[C@H](CC(C)C)NC(=O)[C@H](CCC(N)=O)NC(=O)[C@H](Cc1ccc(O)cc1)NC(=O)[C@H](Cc1c[nH]c2ccccc12)NC(=O)[C@H](CC(C)C)NC(=O)[C@H](CCCCN)NC(=O)[C@@H](N)C(C)C)C(=O)N[C@H](C(=O)NCC(=O)N[C@@H](C)C(=O)O)C(C)C` [Peptide RT85, reference compound], the “Inhibition of the POL/UL8 interaction (in words)” value was “non-inhibitory”.
